One purity is given for all peptides; the source may state it once.

The nature of one data set: peptide synthesis. The settings on record: coupling step, 214 nm, acetate salt.
Data set [1] in a line: general procedure: peptide synthesis; Fmoc-Ser(tBu)-Wang resin. Conditions: whole synthesis, 214 nm, scale 0.5 mmol, acetate salt.
Data set [2] can be described thus: general procedure: peptide synthesis; Fmoc-Gln(Trt)-Wang resin. Conditions: whole synthesis, 214 nm, scale 0.5 mmol, acetate salt.

As to “N-Acetyl -Ser-Chg-Gln-Ser-Ser-Pro-HCAP amine”, the “final HPLC purity” value in “peptide synthesis” is listed as 99%.

Consider “N-Acetyl-4-trans-L-Hyp-Ser-Ser-Chg-Gln-Ser-HCAP amine”, for which the “final HPLC purity” value in “peptide synthesis” is 99%. Take N-Acetyl-Ser-Chg-Gln-Ser-Ser-OH: in data set [1], the “final HPLC purity” value worked out at 99%. For “N-Acetyl-4-trans-L-Hyp-Ser-Ser-Chg-Gln-OH”, the “final HPLC purity” value in data set [2] is 99%.

For the origin of these results see US20020103136A1 (priority 1998, published 2002).
